Series [1] can be described thus: EPR detection of the oxidant in dialysate with DBNBS and its analogues.
Series [2] is described as follows: Effect of sulphite on the EPR signal of the DBNBS radical cation (DBNBS reacted with plasma or urine). Details: species or system human. The protocol:
The characteristic spectrum of DBNBS-SO3^●− was a 9 line signal with an aN=1.32 mT and aH=0.06 mT (FIG. 8). This was obtained by reacting DBNBS with hydrogen peroxide and horseradish peroxidase. The addition of 10 mM sulphite to the reaction mixture caused the signal to increase by over 100 fold in intensity. The signal could also be obtained by reacting DBNBS with sulphite alone. However, when the DBNBS was reacted with the plasma of patients with renal failure and the urine from a normal individual, only the 3 line signal with an aN=1.32 mT was seen (FIGS. 7 & 9, respectively). The hydrogen hyperfine splitting seen in the spectrum of DBNBS-SO3^●− was absent. […] Therefore, we confirmed that DBNBS-SO3^●− and the DBNBS radical cation generated by renal patients' plasma or normal urine were completely different radicals.
Addition of sulphite to the mixture of DBNBS and plasma or urine decreased the signal height of the DBNBS radical cation. This could affect the determination of the oxidant in biological samples if there was sulphite contamination in the DBNBS preparation or endogenous sulphite in the biological sample itself. Therefore the dose response effect on addition of sulphite to the reaction mixture was investigated. […]

Setting [3] is: spin trap concentration 2.5 mM, relative to DBNBS at 1.2 mM.

In the case of `O=Nc1c(Br)cc(S(=O)(=O)O)cc1Br` [DBNBS, 3,5-dibromo-4-nitrosobenzene sulphonate], in series [1] (spin trap concentration 1.2 mM), the “% of DBNBS signal” value is on record as 100.0%. `[2H]c1c(Br)c([15N]=O)c(Br)c([2H])c1S(=O)(=O)[O-].[Na+]` [DBNBS-d2-^15N]: the “% of DBNBS signal” value in series [1] (setting [3]) is 181.1%. The same measure, in the same setting: for `[2H]c1c(Br)c(N=O)c(Br)c([2H])c1S(=O)(=O)[O-].[Na+]` [DBNBS-d2] the value was 122.0%. On to `O=Nc1c(Cl)cc(S(=O)(=O)O)cc1Cl` [DCNBS, 3,5-dichloro-4-nitrosobenzene sulphonate], for which the “% of DBNBS signal” value in series [1] (setting [3]) is 101.0%. Same read-out and setting: then `O=[15N]c1c(Br)cc(S(=O)(=O)[O-])cc1Br.[Na+]` [^15N-DBNBS], with 156.5%. For the compound `O=S([O-])[O-].[K+].[K+]` [sulphite, dipotassium sulphite], the “effect on signal height (DBNBS with plasma of renal failure patients or normal urine)” value in series [2] (addition of 1 mM and 10 mM sulphite) was “caused a decrease in signal height”. For the same compound, the “effect on the 3 line signal of the DBNBS radical cation” value in series [2] (final concentration of 2 mM sulphite in the reaction mixture) is “completely abolished”.

The record behind these values is patent publication US20040067593A1, “Electron paramagnetic resonance method for diagnosis of active nephritis” (priority 2000, published 2004).
